Experimental data from publication PMC6937732.
No constants are given. Whether binding was seen depends on the method and setting. In cells and extracts the contact can be indirect. Some results given as binding are weak or reduced against the parent protein; the word gives no strength. Where a sequence is shown, tags or fusion partners need not be part of it.

Molecular target: T1, HA-TOPK (pcDNA3-HA-TOPK) (UniProt Q96KB5)
T1 sequence: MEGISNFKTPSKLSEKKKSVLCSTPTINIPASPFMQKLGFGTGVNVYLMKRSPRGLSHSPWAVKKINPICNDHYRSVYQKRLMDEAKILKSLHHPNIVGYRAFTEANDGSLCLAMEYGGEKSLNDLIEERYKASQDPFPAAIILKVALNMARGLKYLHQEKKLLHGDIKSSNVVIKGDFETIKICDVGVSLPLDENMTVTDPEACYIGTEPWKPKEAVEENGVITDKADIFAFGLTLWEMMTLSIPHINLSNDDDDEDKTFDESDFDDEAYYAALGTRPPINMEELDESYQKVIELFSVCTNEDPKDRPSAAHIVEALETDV
Experiment: co-IP; HEK293 cells transfected with pcDNA3-HA-TOPK and/or pDEST-myc-γ-catenin for 72 h; lysed in CHAPS buffer; immunoprecipitated with anti-HA antibody; myc detected by western blotting

B1: myc-γ-catenin (pDEST-myc-γ-catenin) (protein, UniProt P14923 1-745)
chain: MEVMNLMEQPIKVTEWQQTYTYDSGIHSGANTCVPSVSSKGIMEEDEACGRQYTLKKTTTYTQGVPPSQGDLEYQMSTTARAKRVREAMCPGVSGEDSSLLLATQVEGQATNLQRLAEPSQLLKSAIVHLINYQDDAELATRALPELTKLLNDEDPVVVTKAAMIVNQLSKKEASRRALMGSPQLVAAVVRTMQNTSDLDTARCTTSILHNLSHHREGLLAIFKSGGIPALVRMLSSPVESVLFYAITTLHNLLLYQEGAKMAVRLADGLQKMVPLLNKNNPKFLAITTDCLQLLAYGNQESKLIILANGGPQALVQIMRNYSYEKLLWTTSRVLKVLSVCPSNKPAIVEAGGMQALGKHLTSNSPRLVQNCLWTLRNLSDVATKQEGLESVLKILVNQLSVDDVNVLTCATGTLSNLTCNNSKNKTLVTQNSGVEALIHAILRAGDKDDITEPAVCALRHLTSRHPEAEMAQNSVRLNYGIPAIVKLLNQPNQWPLVKATIGLIRNLALCPANHAPLQEAAVIPRLVQLLVKAHQDAQRHVAAGTQQPYTDGVRMEEIVEGCTGALHILARDPMNRMEIFRLNTIPLFVQLLYSSVENIQRVAAGVLCELAQDKEAADAIDAEGASAPLMELLHSRNEGTATYAAAVLFRISEDKNPDYRKRVSVELTNSLFKHDPAAWEAAQSMIPINEPYGDDMDATYRPMYSSDVPLDPLEMHMDMDGDYPIDTYSDGLRPPYPTADHMLA
binding: binds
